# Structures can show the parent of a compound that is named as a salt. Where two headings read alike, the source gives them in different places.
# What was measured:
# [1] = for moisture sorbed by the amorphous material at 80% RH: second scan; for water content retained at moderate humidity condition: 10%-80% RH, 4-scan DMSG; for water content of the material (DMSG, start of the run): as received, ambient humidity
# Protocol: Approximately 10 mg samples were used in the balance, samples were run as received. The humidity was set at ambient conditions on the day analysis began. […] The scan rate was 3% RH/step. The mass was measured every two minutes and an equilibrium window of 5 points within 0.001 mg. […] The Visual Basic program dmsgscn2.exe was used to control the data collection and export the information to an Excel spreadsheet.
# (§1) The humidity was set at ambient conditions on the day analysis began. […] The mass was measured every two minutes and an equilibrium window of 5 points within 0.001 mg.
# as §1
# [2] = cited from earlier work
# [3] = trituration in aqueous media, or stressed humidity conditions
compound,measurement,setting,value
"CCC[C@@H]1C[C@@H](C(=O)NC(C(C)Cl)C2OC(SC)C(O)C(O)C2O)N(C)C1 (stereo partly drawn) [7(S)-chloro-7-deoxylincomycin, reference compound]",moisture sorbed by the amorphous material at 80% RH,[1]; amorphous material obtained from Form II,approximately 2%
same,moisture sorbed by the amorphous material at 80% RH,[1]; amorphous material obtained from Form III,about 6%
"CCC[C@@H]1C[C@@H](C(=O)N[C@@H]([C@H]2O[C@H](SC)[C@H](O)[C@@H](O)[C@H]2O)[C@H](C)Cl)N(C)C1 [Clindamycin hydrochloride, clindamycin hydrochloride]",absorption following oral administration,[2],rapid and nearly complete
"CCC[C@@H]1C[C@@H](C(=O)NC(C(C)Cl)C2OC(SC)C(O)C(O)C2O)N(C)C1 (stereo partly drawn) [Form I, 7(S)-chloro-7-deoxylincomycin]",moisture sorbed from 70% RH to 90% RH,"[1]; first scan, ambient to 90% RH, 25° C.",about 2%
same,humidity range in which the crystalline form is stable,"[1]; moderate humidity condition, 3-scan DMSG",10%-90%
"CCC[C@@H]1C[C@@H](C(=O)NC(C(C)Cl)C2OC(SC)C(O)C(O)C2O)N(C)C1 (stereo partly drawn) [Form II, 7(S)-chloro-7-deoxylincomycin]",water content retained at moderate humidity condition,[1],about 2%
same,"water content of the material (DMSG, start of the run)",[1]; 25° C.,approximately 2%
same,conversion of crystal form,[3],convert to Form I
"CCC[C@@H]1C[C@@H](C(=O)NC(C(C)Cl)C2OC(SC)C(O)C(O)C2O)N(C)C1 (stereo partly drawn) [Form III, 7(S)-chloro-7-deoxylincomycin]",water content retained at moderate humidity condition,[1],about 4.5%
same,"water content of the material (DMSG, start of the run)",[1]; 25° C.,approximately 4.5%
same,moisture content lost from ambient down to about 6% RH,"[1]; first scan, ambient to 0% RH",about 1.5%

# Reference: patent US20050192236A1 (priority 2001, published 2005)
